Our source for the binding values is patent publication US20090123940A1, “MOLECULES INVOLVED IN SYNAPTOGENESIS AND USES THEREFOR” (THE JOHNS HOPKINS UNIVERSITY, priority 2007, published 2009).

Results are given in words; binding and its absence hold for the method and conditions named. In cells and extracts the contact can be indirect. Binding calls can cover weak binding; strength is not graded here.

For this experiment, the target named is N-cadherin. Put plainly: co-IP from HEK293 cells; co-clustering on the surface of COS-7 cells.

B1: Neuronal activity regulated pentraxin (Narp) (ligand)
chain: QAQDNPIPGSRFVCTALPPEAARAGCPLPAMPMQGGALSPEEELRAAVLHWRETVVQQKETLGAQREAIRELTSKLARCEGLAGGKARGTGATGKDTMGDLPRDPGHVVEQLSRSLQTLKDRLESLELQLHTNASNAGLPSDFREVLQRRLGELERQLLRKVAELEDEKSLLHNETSAHRQKTENTLNALLQRVTELERGNSAFKSPDAFKVSLPLRTNYLYGKIKKTLPELYAFTICLWLRSSASPGIGTPFSYAVPGQANEIVLIEWGNNPIELLINDKVAQLPLFVSDGKWHHICITWTTRDGMWEAFQDGEKLGTGENLAPWHPIKPGGVLILGQEQDTVGGRFDATQAFVGELSQFNIWDRVLRAQEIINIANCSTNMPGNIIPWVDNNVDVFGGASKWPVETCEERLLDL
For the molecule B1, the binding result is “binds”.
